For at least one compound, name, drawing or mass did not settle the structure.
Key:
[1] = tested on: male C57BL/6 mice; test: Chronic constriction injury (CCI) model of neuropathic pain, von Frey paw withdrawal threshold; type: in vivo, mouse; conditions: 10 mg/kg, 30 minutes and 4 hours
Procedure: To determine whether psilocybin may alleviate chronic neuropathic pain, various doses of psilocybin were tested in a mouse model of chronic constriction injury (CCI).
Male C57BL/6 mice (age 6-7 weeks, source: Charles River UK) were housed in standard caging in groups of 2-4, with free access to food (5CR4, Purina) and water (except during placement in the test box) on a 12/12 light/dark cycle.
All animals underwent behavioral testing of mechanical allodynia on three consecutive days (Day −2, Day−1 and Day 0) prior to surgery in order to determine the baseline withdrawal thresholds. Briefly, Static mechanical (tactile) allodynia was assessed by measurement of withdrawal threshold using calibrated (force; g) von-Frey monofilaments (Touch-Test Sensory Evaluator; Scientific Marketing Associates) applied to the plantar surface of the hind-paw. The animals were placed in individual Perspex boxes on a raised metal mesh for 30-40 minutes before the test. […] The force applied to the hind-paw of the animal to induce 5 responses out of 10 trials was recorded as paw withdrawal threshold (PWT). […] The mean of the last two readings used as the baseline withdrawal threshold. […]
On day 23, the animals were dosed with psilocybin (1, 3 or 10 mg/kg by intraperitoneal injection) or vehicle (10 mL/kg by intraperitoneal injection). […] Allodynia was then assessed at 0.5, 4 and 24 hours post-treatment timepoint (PTT).

[2] = tested on: male Sprague Dawley rats; test: 6-OHDA-induced Parkinson's disease model, beam walking test; type: in vivo, rat
[3] = tested on: Wistar-Kyoto (WKY) rats; test: Sleep-wake amounts (EEG/EMG) in Wistar-Kyoto rats; type: in vivo, rat
Text: Since WKY rats show decreased sensitivity to conventional monoamine-based antidepressant treatment, they are used as a model of TRD.
Male (WKY) rats (200-250 g) were implanted with electroencephalography (EEG) and electromyography (EMG) electrodes and telemetry transmitters under general anaesthesia (2-5% isoflurane in Oxygen). A telemetry transmitter (HD-502, Data Sciences International) was placed in the peritoneal cavity, and the wires of the transmitter were passed through the muscle wall and then sub-dermally to the scalp to act as EEG/EMG electrodes. Two bore holes were made in the skull (Fronto-parietal coordinates; Bregma +2 mm anterior, midline +1.0 mm lateral and Lambda 0 mm, +1.5 mm lateral). The positive EEG electrode was attached to the anterior bore hole and the negative EEG electrode to the posterior bore hole. Both electrodes were secured in place using a suitable adhesive agent (Cyanoacrylate gel, RS components). A second set of electrodes were sutured into the nuchal muscle to act as EMG electrodes. During the post-surgical recovery period (minimum 7 days), the rats received standard post-operative care and no experimental procedures were performed until the pre-operative body weight was regained.
Animals were maintained on a 12/12 hour light dark cycle. On study days, the animals were placed in recording boxes and EEG/EMG, locomotor activity, as well as body temperature were recorded for 0.5 h before and 24 h after each dosing. All animals were dosed with saline vehicle first, followed by one of the drug treatments 24 h later. Drug treatments included ketamine (5 and 10 mg/kg) administered subcutaneously (s.c.), s.c.) and psilocybin (1, 3 and 10 mg/kg); administered intraperitoneally (i.p.).
All treatments were administered 2 h after light onset. […]
The subsequent EEG/EMG recordings were automatically scored as wake, non-REM (NREM) sleep, or REM sleep in 10 second epochs using SleepSign (Kissei Comtec, Japan). […]

Compound: CN(C)CCc1c[nH]c2cccc(OP(=O)(O)O)c12 [Psilocybin, psilocybin]
- Paw withdrawal threshold vs neuropathic baseline [1]: significantly increased
- Beam walking: number of segments crossed ([2]; 1 mg/kg or 10 mg/kg): significantly increased
- Beam walking: time necessary to travel along the beam ([2]; 10 mg/kg): decreased
- Beam walking: walking score combined with number of segments crossed ([2]; 10 mg/kg): improved the general physical condition
- Amount of NREM sleep ([3]; dark period): slight but significant increase
- NREM sleep amount ([3]; light period): slight decrease
- Wake amount ([3]; light period): dose-dependent increase

Reference: patent publication US12377112B2, “Methods of treating neurocognitive disorders, chronic pain and reducing inflammation” (priority 2019, dated 2025)
